Test results as given in publication PMC3797800, “The Coordination of Cell Growth during Fission Yeast Mating Requires Ras1-GTP Hydrolysis” (PLoS ONE, 2013).
Numbering of substitutions follows the chain as printed. These are yes or no findings as the source states them, for the method shown. Binding seen in cells or lysates may run through a third protein. Some results given as binding are weak or reduced against the parent protein; the word gives no strength. Where a sequence is shown, tags or fusion partners need not be part of it.

How the values were obtained:
[1] = biological target: T1, CFP-Ras1 (S. pombe, UniProt P08647 1-219); assay: FRET or BRET; sensitized emission on a confocal microscope, living S. pombe cells co-expressing a CFP donor and a YFP acceptor from nmt1 plasmids; single cells 0, 4 and 8 h after 10 μM pheromone; apparent FRET efficiency
T1 construct: Ras1, small GTPase of Schizosaccharomyces pombe; ORF amplified from the start codon to the stop codon and cloned behind CFP; also called Ras1-GTP; source: S. pombe (strain JY1618, Δras1Δgap1), expressed from pREP4x (nmt1 promoter), in living cells; not shown: CFP, N-terminal, kept
T1 sequence (looked up): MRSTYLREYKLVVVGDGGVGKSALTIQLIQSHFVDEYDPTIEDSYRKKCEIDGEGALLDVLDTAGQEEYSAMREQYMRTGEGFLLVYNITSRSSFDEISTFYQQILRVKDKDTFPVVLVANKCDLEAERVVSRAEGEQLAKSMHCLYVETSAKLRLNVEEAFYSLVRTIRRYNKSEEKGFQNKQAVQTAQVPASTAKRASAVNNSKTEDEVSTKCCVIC

[2] = biological target: T2, CFP-Ras1^G17V (S. pombe) (UniProt P08647); assay: FRET or BRET; FACS-based FRET (405 nm excitation, 585/42 nm emission), living S. pombe cells co-expressing CFP and YFP fusions; percent of cells with a FRET signal over 0-8 h after 10 μM pheromone
T2 sequence: T1 sequence (looked up) with G17V

[3] = biological target: T3, CFP-Ras1^Q66L (S. pombe) (UniProt P08647); assay: as above
T3 sequence: T1 sequence (looked up) with Q66L

binding [2]: no binding
binding [3]: binds
B1: Gap1-YFP (natural protein, S. pombe, UniProt P33277 1-766, looked up)
chain: MTKRHSGTLSSSVLPQTNRLSLLRNRESTSVLYTIDLDMESDVEDAFFHLDRELHDLKQQISSQSKQNFVLERDVRYLDSKIALLIQNRMAQEEQHEFAKRLNDNYNAVKGSFPDDRKLQLYGALFFLLQSEPAYIASLVRRVKLFNMDALLQIVMFNIYGNQYESREEHLLLSLFQMVLTTEFEATSDVLSLLRANTPVSRMLTTYTRRGPGQAYLRSILYQCINDVAIHPDLQLDIHPLSVYRYLVNTGQLSPSEDDNLLTNEEVSEFPAVKNAIQERSAQLLLLTKRFLDAVLNSIDEIPYGIRWVCKLIRNLTNRLFPSISDSTICSLIGGFFFLRFVNPAIISPQTSMLLDSCPSDNVRKTLATIAKIIQSVANGTSSTKTHLDVSFQPMLKEYEEKVHNLLRKLGNVGDFFEALELDQYIALSKKSLALEMTVNEIYLTHEIILENLDNLYDPDSHVHLILQELGEPCKSVPQEDNCLVTLPLYNRWDSSIPDLKQNLKVTREDILYVDAKTLFIQLLRLLPSGHPATRVPLDLPLIADSVSSLKSMSLMKKGIRAIELLDELSTLRLVDKENRYEPLTSEVEKEFIDLDALYERIRAERDALQDVHRAICDHNEYLQTQLQIYGSYLNNARSQIKPSHSDSKGFSRGVGVVGIKPKNIKSSNTVKLSSQQLKKESVLLNCTIPEFNVSNTYFTFSSPSTDNFVIAVYQRGHSKVLVEVCICLDDVLQRRYASNPVVDLGFLTFEANKLYHLFEQLFLRK
notes: ORF amplified from the start codon, stop codon removed, cloned in front of YFP; source: S. pombe, expressed from pREP3x (nmt1 promoter), in living cells; not shown: YFP, C-terminal, kept
binding [1]: binds
